According to publication PMC12295313 (2025):
No constants are given. Whether binding was seen depends on the method and setting. Some results given as binding are weak or reduced against the parent protein; the word gives no strength. Where a sequence is shown, tags or fusion partners need not be part of it.

Target: T1, FGFR1c ectodomain (extracellular ligand-binding domain of FGFR1c), P11362
T1 chain: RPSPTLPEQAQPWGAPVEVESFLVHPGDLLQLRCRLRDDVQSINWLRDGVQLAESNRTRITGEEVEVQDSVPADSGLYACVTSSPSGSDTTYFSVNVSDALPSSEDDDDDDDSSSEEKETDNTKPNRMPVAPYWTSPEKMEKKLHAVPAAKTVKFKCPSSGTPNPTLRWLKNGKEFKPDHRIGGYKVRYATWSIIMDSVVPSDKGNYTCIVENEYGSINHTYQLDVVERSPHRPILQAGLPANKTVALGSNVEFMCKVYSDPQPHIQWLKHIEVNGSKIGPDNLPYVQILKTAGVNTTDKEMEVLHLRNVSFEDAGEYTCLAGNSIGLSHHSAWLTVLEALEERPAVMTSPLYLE
Test: SPR; Biacore T200; ligand-binding region of FGFR1c amine-coupled to a CM5 chip; FGF21^WT or FGF21^D2D3 injected at increasing concentrations for 180 s at 50 uL/min; HBS-EP buffer (10 mM HEPES-NaOH pH 7.4, 150 mM NaCl, 3 mM EDTA, 0.005% Surfactant P20); Kd from fitted saturation binding curves; both purified
Conditions: remark: other sources report otherwise

B1: Recombinant human wild-type FGF21 (His29-Ser209), Q9NSA1 29-209 (protein)
chain: HPIPDSSPLLQFGGQVRQRYLYTDDAQQTEAHLEIREDGTVGGAADQSPESLLQLKALKPGVIQILGVKTSRFLCQRPDGALYGSLHFDPEACSFRELLLEDGYNVYQSEAHGLPLHLPGNKSPHRDPAPRGPARFLPLPGLPPALPEPPGILAPQPPDVGSSDPLSMVGPSQGRSPSYAS
binding: binds
